Reference: PMC7077720, “Improvement of Peptide Affinity and Stability by Complexing to Cyclodextrin-Grafted Ammonium Chitosan” (Polymers, 2020)
Where a SMILES comes first, the peptide text is derived from it. [ ]: non-standard residue; d: D form.

Test: NMR proton selective relaxation rate measurements of DAL (affinity studies)
Format: binding
Settings: D2O, 25 °C
[1] = 600 MHz, DAL 0.68 mM, 1:1 MCD/DAL

Compound	bound molar fraction of DAL (equimolar MCD, 0.68 mM, from Ka) [%]	Bi-selective relaxation rate R1^bs of H1^Tyr of DAL (600 MHz, DAL 0.68 mM) [s⁻¹]	Bi-selective relaxation rate R1^bs of H2^Tyr of DAL (600 MHz, DAL 0.68 mM) [s⁻¹]	Bi-selective relaxation rate R1^bs of H3^Phe of DAL (600 MHz, DAL 0.68 mM) [s⁻¹]	Bi-selective relaxation rate R1^bs of H4^Phe of DAL (600 MHz, DAL 0.68 mM) [s⁻¹]	Mono-selective relaxation rate R1^ms of H1^Tyr of DAL [1] [s⁻¹]	Mono-selective relaxation rate R1^ms of H2^Tyr of DAL [1] [s⁻¹]	Mono-selective relaxation rate R1^ms of H3^Phe of DAL [1] [s⁻¹]	Mono-selective relaxation rate R1^ms of H4^Phe of DAL [1] [s⁻¹]	Mono-selective relaxation rate R1^ms of H4a^Leu of DAL [1] [s⁻¹]	Mono-selective relaxation rate R1^ms of H4b^Leu of DAL [1] [s⁻¹]	Mono-selective relaxation rate R1^ms of H5^Phe of DAL [1] [s⁻¹]
2-methyl-β-cyclodextrin [MCD]	7	–	–	–	–	–	–	–	–	–	–	–
CC(C)C[C@H](NC(=O)[C@H](Cc1ccccc1)NC(=O)CNC(=O)[C@@H](C)NC(=O)[C@@H](N)Cc1ccc(O)cc1)C(=O)N[C@@H](CCCNC(=N)N)C(=O)O [DAL, (D-Ala2)-Leu-Enkephalin-Arg] (H-Y[dA]GFLR-OH)	–	0.39	0.61	0.63	0.55	0.36	0.58	0.62	0.54	1.69	1.59	0.66
